Results are given in words; binding and its absence hold for the method and conditions named. In cells and extracts the contact can be indirect. These calls come from enrichment with a bait or labelling near it, and not all partners need be listed. Sequences can lack the tags named with a protein.
How the values were obtained:
Assay in all cases: affinity purification with mass spectrometry; purified GFP-3C-bait-3C-His6 immobilised on GFP binder beads, incubated with 6 mg Drosophila embryo nuclear extract in IP buffer (50 mM tris-Cl pH 7.5, 150 mM potassium acetate, 2 mM MgCl2, 10% glycerol, 0.1 mM DTT, 0.2% IGEPAL), 3 hours at 4°C; eluted with 3C protease; enrichment over a GFP-tagged Xenopus Nse I control bait; biological duplicates; only the target purified
[1] = biological target: T1, GFP-tagged CTCF[1-293] (N terminus) (GFP-3C-bait-3C-His6) (D. melanogaster) (UniProt Q9VS55)
T1 sequence: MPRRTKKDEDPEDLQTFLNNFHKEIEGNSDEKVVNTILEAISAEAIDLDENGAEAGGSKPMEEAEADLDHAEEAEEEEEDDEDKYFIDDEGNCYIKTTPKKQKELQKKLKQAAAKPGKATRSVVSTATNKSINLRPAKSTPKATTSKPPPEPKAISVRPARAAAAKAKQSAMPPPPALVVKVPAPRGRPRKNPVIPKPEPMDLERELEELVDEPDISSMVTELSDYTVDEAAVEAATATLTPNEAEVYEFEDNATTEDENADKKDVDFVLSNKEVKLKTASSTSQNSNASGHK

Amino acid sequences for entries named in this document (tags omitted). A change or cut given only in a name is not applied to a line headed by its entry.
UniProt Q7K180: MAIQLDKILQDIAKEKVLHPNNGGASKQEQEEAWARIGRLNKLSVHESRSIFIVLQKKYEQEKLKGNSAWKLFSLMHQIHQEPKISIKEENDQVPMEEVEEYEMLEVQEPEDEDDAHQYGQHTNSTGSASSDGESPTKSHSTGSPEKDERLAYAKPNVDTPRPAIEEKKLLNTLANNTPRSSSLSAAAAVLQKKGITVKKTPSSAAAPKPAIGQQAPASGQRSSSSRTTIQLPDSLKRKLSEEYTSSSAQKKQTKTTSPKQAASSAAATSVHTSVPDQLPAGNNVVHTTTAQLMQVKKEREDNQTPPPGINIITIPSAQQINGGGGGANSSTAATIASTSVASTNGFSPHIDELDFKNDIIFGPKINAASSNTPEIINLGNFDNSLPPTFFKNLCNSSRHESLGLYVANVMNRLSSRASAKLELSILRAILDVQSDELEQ

[2] = biological target: T2, GFP-tagged Chro[613-926] (C terminus) (GFP-3C-bait-3C-His6) (D. melanogaster) (UniProt Q86BS3)
T2 sequence: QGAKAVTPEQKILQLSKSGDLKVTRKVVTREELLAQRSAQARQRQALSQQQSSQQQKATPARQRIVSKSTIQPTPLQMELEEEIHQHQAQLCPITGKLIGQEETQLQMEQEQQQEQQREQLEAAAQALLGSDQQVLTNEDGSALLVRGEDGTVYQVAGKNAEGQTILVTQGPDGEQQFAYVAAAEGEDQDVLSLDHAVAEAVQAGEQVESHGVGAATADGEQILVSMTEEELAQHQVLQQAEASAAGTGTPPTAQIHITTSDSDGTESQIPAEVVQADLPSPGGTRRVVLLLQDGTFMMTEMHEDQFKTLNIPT

[3] = biological target: T3, GFP-tagged Su(Hw)[1-219] (N terminus) (GFP-3C-bait-3C-His6) (D. melanogaster) (UniProt P08970)
T3 sequence: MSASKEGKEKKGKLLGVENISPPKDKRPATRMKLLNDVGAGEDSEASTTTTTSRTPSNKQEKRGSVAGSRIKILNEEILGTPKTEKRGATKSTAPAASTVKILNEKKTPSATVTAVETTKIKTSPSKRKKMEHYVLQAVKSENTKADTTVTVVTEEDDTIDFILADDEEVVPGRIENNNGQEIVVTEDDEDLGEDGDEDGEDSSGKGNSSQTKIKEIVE

[4] = biological target: T4, GFP-tagged full-length Cp190[1-1096] bait (GFP-3C-Cp190-3C-His6) (D. melanogaster) (UniProt Q24478)
T4 sequence: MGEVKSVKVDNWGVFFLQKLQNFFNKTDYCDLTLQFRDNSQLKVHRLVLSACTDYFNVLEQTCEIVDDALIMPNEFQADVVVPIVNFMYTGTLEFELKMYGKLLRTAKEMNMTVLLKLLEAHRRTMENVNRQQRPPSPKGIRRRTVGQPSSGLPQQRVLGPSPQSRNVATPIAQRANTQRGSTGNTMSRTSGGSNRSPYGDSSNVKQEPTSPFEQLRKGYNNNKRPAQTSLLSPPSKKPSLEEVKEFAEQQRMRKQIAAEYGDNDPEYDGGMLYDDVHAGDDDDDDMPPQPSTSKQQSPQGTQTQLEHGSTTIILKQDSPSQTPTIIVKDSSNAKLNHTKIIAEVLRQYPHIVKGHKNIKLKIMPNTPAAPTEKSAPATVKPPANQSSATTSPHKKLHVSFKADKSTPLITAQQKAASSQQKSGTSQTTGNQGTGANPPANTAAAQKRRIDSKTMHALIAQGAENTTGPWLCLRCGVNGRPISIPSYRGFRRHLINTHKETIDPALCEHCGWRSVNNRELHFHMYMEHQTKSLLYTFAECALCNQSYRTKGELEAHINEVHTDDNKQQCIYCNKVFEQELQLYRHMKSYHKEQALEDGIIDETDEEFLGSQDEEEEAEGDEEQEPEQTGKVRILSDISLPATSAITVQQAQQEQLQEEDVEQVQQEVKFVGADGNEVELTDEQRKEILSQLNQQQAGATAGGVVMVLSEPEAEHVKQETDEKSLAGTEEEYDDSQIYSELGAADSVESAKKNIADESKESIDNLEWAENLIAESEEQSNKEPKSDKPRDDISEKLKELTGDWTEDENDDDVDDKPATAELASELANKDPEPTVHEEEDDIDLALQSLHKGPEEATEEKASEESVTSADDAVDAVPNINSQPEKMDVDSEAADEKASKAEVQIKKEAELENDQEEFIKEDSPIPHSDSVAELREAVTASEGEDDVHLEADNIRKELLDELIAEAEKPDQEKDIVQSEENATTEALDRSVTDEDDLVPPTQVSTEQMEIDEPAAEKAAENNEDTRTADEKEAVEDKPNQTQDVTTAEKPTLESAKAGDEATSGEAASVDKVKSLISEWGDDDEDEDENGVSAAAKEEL

Measured: binding

CG1737, endogenous
binds: all assays above

Cp60, endogenous (from UniProt Q7K180)
binds: all assays above
